Source: the supplement of paper PMC7661543
± gives the standard deviation of the averaged measurements. The effect of the compound repeats well; differences between the knockouts mostly do not.

Test system: BT-20
Experiment: relative cell number vs DMSO control (72 h) (% of DMSO); higher = less growth inhibition (more cells)
Protocol: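 QMAP-Seq: a pool of 5 breast cancer cell lines (ZR-75-1, SKBR3, HCC-38, MDA-MB-231, BT-20), each carrying 12 doxycycline-inducible Cas9 sgRNA perturbations (11 knockouts plus non-targeting sgNT), was treated with compounds for 72 h at four 10-fold doses (10 nM-10 uM or 1 nM-1 uM range). Barcodes were amplified and sequenced, and cell number was interpolated from 293T spike-in standard curves. The result is expressed as % of the median of DMSO wells. Two biological replicates.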

[1] = sgRNA knockout: sgATF3, 1000 nM
[2] = sgRNA knockout: sgATF3, 10000 nM
[3] = sgRNA knockout: sgATF4, 1000 nM
[4] = sgRNA knockout: sgATF4, 10000 nM
[5] = sgRNA knockout: sgATF6, 1000 nM
[6] = sgRNA knockout: sgATF6, 10000 nM
[7] = sgRNA knockout: sgATG7, 1000 nM
[8] = sgRNA knockout: sgATG7, 10000 nM
[9] = sgRNA knockout: sgERN1, 1000 nM
[10] = sgRNA knockout: sgERN1, 10000 nM
[11] = sgRNA knockout: sgHSF1, 1000 nM
[12] = sgRNA knockout: sgHSF1, 10000 nM
[13] = sgRNA knockout: sgHSF2, 1000 nM
[14] = sgRNA knockout: sgHSF2, 10000 nM
[15] = sgRNA knockout: sgKEAP1, 100 nM
[16] = sgRNA knockout: sgKEAP1, 1000 nM
[17] = sgRNA knockout: sgKEAP1, 10000 nM
[18] = sgRNA knockout: sgNFE2L2, 10 nM
[19] = sgRNA knockout: sgNFE2L2, 100 nM
[20] = sgRNA knockout: sgNFE2L2, 1000 nM
[21] = sgRNA knockout: sgNFE2L2, 10000 nM
[22] = sgRNA knockout: sgSLC35F2, 10 nM
[23] = sgRNA knockout: sgSLC35F2, 100 nM
[24] = sgRNA knockout: sgSLC35F2, 1000 nM
[25] = sgRNA knockout: sgSLC35F2, 10000 nM
[26] = sgRNA knockout: sgXBP1, 1000 nM
[27] = sgRNA knockout: sgXBP1, 10000 nM

## COc1cc2nccc(Oc3ccc(NC(=O)Nc4cc(C)on4)c(Cl)c3)c2cc1OC [Tivozanib]
sgRNA knockout: sgATF3, 10 nM
  relative cell number: 89 ± 2
sgRNA knockout: sgATF3, 100 nM
  relative cell number: 83.3 ± 4.3
[1]
  relative cell number: 88.59 ± 0.24
[2]
  relative cell number: 56 ± 4.2
sgRNA knockout: sgATF4, 10 nM
  relative cell number: 109 ± 5.9
sgRNA knockout: sgATF4, 100 nM
  relative cell number: 103 ± 9.1
[3]
  relative cell number: 96 ± 2.2
[4]
  relative cell number: 71.8 ± 5.2
sgRNA knockout: sgATF6, 10 nM
  relative cell number: 92.5 ± 12
sgRNA knockout: sgATF6, 100 nM
  relative cell number: 80.6 ± 1.8
[5]
  relative cell number: 100.1 ± 0.55
[6]
  relative cell number: 79.7 ± 20
sgRNA knockout: sgATG7, 10 nM
  relative cell number: 92.8 ± 21
sgRNA knockout: sgATG7, 100 nM
  relative cell number: 93.9 ± 6.7
[7]
  relative cell number: 95.6 ± 23
[8]
  relative cell number: 63.6 ± 10
sgRNA knockout: sgERN1, 10 nM
  relative cell number: 82 ± 4.1
sgRNA knockout: sgERN1, 100 nM
  relative cell number: 98.4 ± 12
[9]
  relative cell number: 102 ± 17
[10]
  relative cell number: 65.6 ± 6.2
sgRNA knockout: sgHSF1, 10 nM
  relative cell number: 109 ± 2.4
sgRNA knockout: sgHSF1, 100 nM
  relative cell number: 98.9 ± 8.4
[11]
  relative cell number: 100 ± 1.4
[12]
  relative cell number: 68.9 ± 5.2
sgRNA knockout: sgHSF2, 10 nM
  relative cell number: 88.2 ± 9.6
sgRNA knockout: sgHSF2, 100 nM
  relative cell number: 110 ± 16
[13]
  relative cell number: 92.1 ± 10
[14]
  relative cell number: 71 ± 7.4
sgRNA knockout: sgKEAP1, 10 nM
  relative cell number: 98.1 ± 6
[15]
  relative cell number: 88.9 ± 7.9
[16]
  relative cell number: 102 ± 9.6
[17]
  relative cell number: 70.2 ± 5.2
[18]
  relative cell number: 80.5 ± 13
[19]
  relative cell number: 96.3 ± 21
[20]
  relative cell number: 108 ± 3.9
[21]
  relative cell number: 69.4 ± 1.7
[22]
  relative cell number: 80.3 ± 4.3
[23]
  relative cell number: 108 ± 31
[24]
  relative cell number: 95.8 ± 1.6
[25]
  relative cell number: 64.6 ± 18
sgRNA knockout: sgXBP1, 10 nM
  relative cell number: 83.9 ± 4.3
sgRNA knockout: sgXBP1, 100 nM
  relative cell number: 95.5 ± 3.3
[26]
  relative cell number: 107 ± 1.4
[27]
  relative cell number: 81.3 ± 12

## CC(=O)Nc1cccc(-n2c(=O)n(C3CC3)c(=O)c3c(Nc4ccc(I)cc4F)n(C)c(=O)c(C)c32)c1 [Trametinib]
sgRNA knockout: sgATF3, 10 nM
  relative cell number: 96.7 ± 17
sgRNA knockout: sgATF3, 100 nM
  relative cell number: 88.8 ± 19
[1]
  relative cell number: 89.1 ± 16
[2]
  relative cell number: 72.9 ± 9.5
sgRNA knockout: sgATF4, 10 nM
  relative cell number: 95.8 ± 4
sgRNA knockout: sgATF4, 100 nM
  relative cell number: 77.19 ± 0.4
[3]
  relative cell number: 91.8 ± 21
[4]
  relative cell number: 81.9 ± 17
sgRNA knockout: sgATF6, 10 nM
  relative cell number: 98.7 ± 20
sgRNA knockout: sgATF6, 100 nM
  relative cell number: 77 ± 13
[5]
  relative cell number: 103 ± 31
[6]
  relative cell number: 53.6 ± 3
sgRNA knockout: sgATG7, 10 nM
  relative cell number: 104 ± 19
sgRNA knockout: sgATG7, 100 nM
  relative cell number: 69.9 ± 3.3
[7]
  relative cell number: 86.2 ± 16
[8]
  relative cell number: 70.61 ± 0.6
sgRNA knockout: sgERN1, 10 nM
  relative cell number: 97.7 ± 10
sgRNA knockout: sgERN1, 100 nM
  relative cell number: 75.2 ± 7
[9]
  relative cell number: 89.7 ± 9.9
[10]
  relative cell number: 64.3 ± 14
sgRNA knockout: sgHSF1, 10 nM
  relative cell number: 99.8 ± 41
sgRNA knockout: sgHSF1, 100 nM
  relative cell number: 88.1 ± 8.1
[11]
  relative cell number: 95.1 ± 32
[12]
  relative cell number: 72.3 ± 5.4
sgRNA knockout: sgHSF2, 10 nM
  relative cell number: 102 ± 21
sgRNA knockout: sgHSF2, 100 nM
  relative cell number: 85.9 ± 1.8
[13]
  relative cell number: 85.2 ± 1.5
[14]
  relative cell number: 73.7 ± 28
sgRNA knockout: sgKEAP1, 10 nM
  relative cell number: 93.5 ± 18
[15]
  relative cell number: 72.5 ± 5.7
[16]
  relative cell number: 90.8 ± 4.3
[17]
  relative cell number: 86.6 ± 6.2
[18]
  relative cell number: 104 ± 28
[19]
  relative cell number: 77.2 ± 4.5
[20]
  relative cell number: 87.6 ± 10
[21]
  relative cell number: 85.5 ± 2.3
[22]
  relative cell number: 99.8 ± 34
[23]
  relative cell number: 82.3 ± 5.3
[24]
  relative cell number: 92.3 ± 10
[25]
  relative cell number: 72.1 ± 13
sgRNA knockout: sgXBP1, 10 nM
  relative cell number: 102 ± 24
sgRNA knockout: sgXBP1, 100 nM
  relative cell number: 87.8 ± 14
[26]
  relative cell number: 85.6 ± 9.8
[27]
  relative cell number: 80.5 ± 11

## CC(C)[C@]12O[C@H]1[C@@H]1O[C@]13[C@]1(O[C@H]1C[C@H]1C4=C(CC[C@@]13C)C(=O)OC4)[C@@H]2O [Triptolide]
sgRNA knockout: sgATF3, 1 nM
  relative cell number: 114 ± 18
sgRNA knockout: sgATF3, 10 nM
  relative cell number: 84.2 ± 2.6
sgRNA knockout: sgATF3, 100 nM
  relative cell number: 37.6 ± 10
[1]
  relative cell number: 24.8 ± 6.8
sgRNA knockout: sgATF4, 1 nM
  relative cell number: 111 ± 40
sgRNA knockout: sgATF4, 10 nM
  relative cell number: 102 ± 11
sgRNA knockout: sgATF4, 100 nM
  relative cell number: 39.6 ± 11
[3]
  relative cell number: 27.6 ± 3.5
sgRNA knockout: sgATF6, 1 nM
  relative cell number: 104 ± 4.3
sgRNA knockout: sgATF6, 10 nM
  relative cell number: 74.9 ± 9.2
sgRNA knockout: sgATF6, 100 nM
  relative cell number: 30.2 ± 10
[5]
  relative cell number: 20.6 ± 3.5
sgRNA knockout: sgATG7, 1 nM
  relative cell number: 96.9 ± 20
sgRNA knockout: sgATG7, 10 nM
  relative cell number: 77.6 ± 2.8
sgRNA knockout: sgATG7, 100 nM
  relative cell number: 36.9 ± 11
[7]
  relative cell number: 24.55 ± 0.2
sgRNA knockout: sgERN1, 1 nM
  relative cell number: 97.2 ± 6.4
sgRNA knockout: sgERN1, 10 nM
  relative cell number: 80.386 ± 0.017
sgRNA knockout: sgERN1, 100 nM
  relative cell number: 31.4 ± 9.5
[9]
  relative cell number: 28.9 ± 5.8
sgRNA knockout: sgHSF1, 1 nM
  relative cell number: 99.2 ± 6.5
sgRNA knockout: sgHSF1, 10 nM
  relative cell number: 86.9 ± 8.9
sgRNA knockout: sgHSF1, 100 nM
  relative cell number: 31.2 ± 1.4
[11]
  relative cell number: 25.6 ± 0.35
sgRNA knockout: sgHSF2, 1 nM
  relative cell number: 93.8 ± 2.8
sgRNA knockout: sgHSF2, 10 nM
  relative cell number: 77.5 ± 22
sgRNA knockout: sgHSF2, 100 nM
  relative cell number: 30.8 ± 1.3
[13]
  relative cell number: 20.9 ± 2.9
sgRNA knockout: sgKEAP1, 1 nM
  relative cell number: 103 ± 30
sgRNA knockout: sgKEAP1, 10 nM
  relative cell number: 89.2 ± 7.4
[15]
  relative cell number: 32.5 ± 2.8
[16]
  relative cell number: 25.9 ± 4.6
sgRNA knockout: sgNFE2L2, 1 nM
  relative cell number: 117 ± 2
[18]
  relative cell number: 76.4 ± 9.2
[19]
  relative cell number: 36.2 ± 4.7
[20]
  relative cell number: 25.7 ± 3.3
sgRNA knockout: sgSLC35F2, 1 nM
  relative cell number: 112 ± 8.7
[22]
  relative cell number: 90.1 ± 20
[23]
  relative cell number: 31.6 ± 7.7
[24]
  relative cell number: 25.9 ± 4.5
sgRNA knockout: sgXBP1, 1 nM
  relative cell number: 100.66 ± 0.05
sgRNA knockout: sgXBP1, 10 nM
  relative cell number: 93.6 ± 12
sgRNA knockout: sgXBP1, 100 nM
  relative cell number: 34.1 ± 5.7
[26]
  relative cell number: 23.9 ± 6.6
